Measured values: PubChem BioAssay AID248 (DTP/NCI, 2004)
The list does not hold the whole screen: it gathers tests that were run many times, whatever their T/C, doses with no T/C, and many T/C values between a quarter and a half above the control. Further doses and runs are listed elsewhere. T/C is the treated group as % of the vehicle group. Some entries give survivors of the animals treated and no T/C: the source holds a T/C of zero for them, seemingly a mark for toxic or unscored doses. Some survivor counts are full or nearly so, which does not show that the dose was tolerated: survival well below the control is almost never listed, so the zero probably covers shortened survival too. Counts of survivors are from the toxicity check (mostly the fifth day) where no day follows; animals may have died later. Schedules are NCI's codes, read here as Q, the interval in days (D) or hours (H), X, the number of doses. Some entries hold several experiments; the values are given in rising order. Some schedule codes hold Z or #, which are not explained here. Where survival is the endpoint, the PubChem record calls one and a half times the control and up active, and a quarter to a half above the control has no call in these data; cut-offs in other NCI protocols can differ.

System: L1210 leukemia ip in BDF1 mice, survival T/C
Assay: NCI In Vivo Anticancer Drug Screen. Data for tumor model L1210 Leukemia (intraperitoneal) in B6D2F1 (BDF1) mice
Details: T/C endpoint: mean survival time, higher T/C = longer survival
[1] = dose: 400.0 mg/kg/injection, schedule: Q04DX003 (ip), vehicle: saline with Tween-80
[2] = dose: 400.0 mg/kg/injection, schedule: Q01DX009 (ip), vehicle: saline with Tween-80
[3] = dose: 100.0 mg/kg/injection, schedule: Q04DX003 (ip), vehicle: saline
[4] = dose: 200.0 mg/kg/injection, schedule: Q04DX003 (ip), vehicle: saline
[5] = dose: 400.0 mg/kg/injection, schedule: Q04DX003 (ip), vehicle: saline
[6] = dose: 50.0 mg/kg/injection, schedule: Q01DX009 (ip), vehicle: Klucel (hydroxypropylcellulose) (HPC)
[7] = dose: 400.0 mg/kg/injection, schedule: Q01DX009 (ip), vehicle: other

## CC(C)(C)CC(C)(C)c1ccc(Oc2ccc([N+](=O)[O-])cc2S(=O)(=O)O)cc1
dose: 200.0 mg/kg/injection, schedule: Q04DX003 (ip), vehicle: saline with Tween-80
  survivor count: 0 of 6
[1]
  survivor count: 0 of 6

## CCN(CC)C(=O)Nc1cccc(OC(=O)N(C)C)c1
[2]
  survivor count: 6 of 6

## Cc1ccccc1OC(=O)Nc1ccc(C(=O)O)c(O)c1
[2]
  survivor count: 0 of 6

## CC(C)(C)C#C[P+](C#CC(C)(C)C)(Cc1ccccc1)c1ccccc1
dose: 50.0 mg/kg/injection, schedule: Q01DX009 (ip), vehicle: saline
  survivor count: 4 of 6
[3]
  survivor count: 0 of 6
[4]
  survivor count: 0 of 6
[5]
  survivor count: 0 of 6

## O=C1C=CC(=O)N1c1ccc2c(c1)OCO2
dose: 25.0 mg/kg/injection, schedule: Q04DX002 (ip), vehicle: saline with Tween-80
  survivor count: 0 of 3
dose: 50.0 mg/kg/injection, schedule: Q04DX002 (ip), vehicle: saline with Tween-80
  survivor count: 0 of 3
dose: 100.0 mg/kg/injection, schedule: Q04DX002 (ip), vehicle: saline with Tween-80
  survivor count: 0 of 3
dose: 200.0 mg/kg/injection, schedule: Q04DX002 (ip), vehicle: saline with Tween-80
  survivor count: 0 of 3
dose: 400.0 mg/kg/injection, schedule: Q04DX002 (ip), vehicle: saline with Tween-80
  survivor count: 0 of 3

## C[N+]1(C2CCC3CCC2C3=O)CCCC1 (stereo unspecified)
dose: 300.0 mg/kg/injection, schedule: Q01DX001 (ip), vehicle: saline
  survivor count: 0 of 6

## COc1ccc(C(O)SP(=S)(OC)c2ccc(OC)cc2)cc1 (stereo unspecified)
[1]
  survivor count: 3 of 6

## CCN(CC)CCN(C)c1cc(C)nc(/N=C(\N)Nc2ccc(Cl)c(Cl)c2)n1
dose: 150.0 mg/kg/injection, schedule: Q04DX003 (ip), vehicle: saline with Tween-80
  survivor count: 1 of 6

## C/C(=N\N=C(/C)c1ccc2ccccc2c1)c1ccc2ccccc2c1
[1]
  survivor count: 3 of 3

## Clc1ccc2c(OCCN3CC3)ccnc2c1
dose: 200.0 mg/kg/injection, schedule: Q01DX001 (ip), vehicle: carboxymethylcellulose (CMC)
  survivor count: 1 of 6
dose: 400.0 mg/kg/injection, schedule: Q01DX001 (ip), vehicle: carboxymethylcellulose (CMC)
  survivor count: 0 of 6

## CN=C(N/N=C/c1ccccc1)N(C)C
dose: 100.0 mg/kg/injection, schedule: Q04DX003 (ip), vehicle: Klucel (hydroxypropylcellulose) (HPC)
  survivor count: 3 of 6
dose: 175.0 mg/kg/injection, schedule: Q04DX003 (ip), vehicle: Klucel (hydroxypropylcellulose) (HPC)
  survivor count: 0 of 6
dose: 350.0 mg/kg/injection, schedule: Q04DX003 (ip), vehicle: Klucel (hydroxypropylcellulose) (HPC)
  survivor count: 0 of 6

## Cc1ccc(Nc2nc(N)nc(N)c2N=O)cc1
dose: 100.0 mg/kg/injection, schedule: Q01DX Z (ip), vehicle: methylcellulose (MC)
  survivor count: 1 of 6
dose: 200.0 mg/kg/injection, schedule: Q01DX Z (ip), vehicle: methylcellulose (MC)
  survivor count: 4 of 6

## CN(Cc1cnc2nc(N)nc(N)c2n1)c1ccc(C(=O)NC(CCC(=O)O)C(=O)O)cc1[N+](=O)[O-] (stereo unspecified)
dose: 1.25 mg/kg/injection, schedule: Q01DX009 (ip), vehicle: sodium bicarbonate
  T/C: 133 % of control

## Cc1c2ccncc2c(C)c2c1sc1ccccc12
dose: 40.0 mg/kg/injection, schedule: Q01DX009 (ip), vehicle: Klucel (hydroxypropylcellulose) (HPC)
  T/C: 129 % of control
dose: 40.0 mg/kg/injection, schedule: Q01DX009 (ip), vehicle: other
  T/C: 144 % of control
dose: 80.0 mg/kg/injection, schedule: Q01DX009 (ip), vehicle: Klucel (hydroxypropylcellulose) (HPC)
  T/C: 125 % of control
dose: 160.0 mg/kg/injection, schedule: Q01DX009 (ip), vehicle: Klucel (hydroxypropylcellulose) (HPC)
  T/C: 132 % of control
dose: 160.0 mg/kg/injection, schedule: Q01DX009 (ip), vehicle: other
  T/C: 145 % of control
dose: 250.0 mg/kg/injection, schedule: Q01DX001 (ip), vehicle: other
  T/C: 132 % of control
dose: 1000.0 mg/kg/injection, schedule: Q01DX001 (ip), vehicle: other
  survivor count: 0 of 6

## CC[N+]1(CC)CCC(OC(=O)C(O)(c2ccccc2)c2ccccc2)C1 (stereo unspecified)
dose: 100.0 mg/kg/injection, schedule: Q01DX001 (ip), vehicle: saline
  survivor count: 2 of 4
dose: 200.0 mg/kg/injection, schedule: Q01DX001 (ip), vehicle: saline
  survivor count: 0 of 4
dose: 400.0 mg/kg/injection, schedule: Q01DX001 (ip), vehicle: saline
  survivor count: 0 of 4

## C1c2nnnn2Cc2nnnn21
dose: 100.0 mg/kg/injection, schedule: Q04DX002 (ip), vehicle: saline
  survivor count: 0 of 3
dose: 200.0 mg/kg/injection, schedule: Q04DX002 (ip), vehicle: saline
  survivor count: 0 of 3
dose: 400.0 mg/kg/injection, schedule: Q04DX002 (ip), vehicle: saline
  survivor count: 0 of 3

## CCCCCCCC/C=C\CCCCCCCC(=O)[O][Sn]([CH2]CCC)([CH2]CCC)[O]C(=O)CCCCCCC/C=C\CCCCCCCC
dose: 25.0 mg/kg/injection, schedule: Q01DX009 (ip), vehicle: Klucel (hydroxypropylcellulose) (HPC)
  survivor count: 0 of 3
[6]
  survivor count: 0 of 3
dose: 100.0 mg/kg/injection, schedule: Q01DX009 (ip), vehicle: Klucel (hydroxypropylcellulose) (HPC)
  survivor count: 0 of 3 and 0 of 6
dose: 200.0 mg/kg/injection, schedule: Q01DX009 (ip), vehicle: Klucel (hydroxypropylcellulose) (HPC)
  survivor count: 0 of 6
dose: 400.0 mg/kg/injection, schedule: Q01DX009 (ip), vehicle: Klucel (hydroxypropylcellulose) (HPC)
  survivor count: 0 of 6

## CC1=CC(=O)N(NC(N)=O)C1=O
dose: 100.0 mg/kg/injection, schedule: Q01DX009 (ip), vehicle: saline with Tween-80
  survivor count: 6 of 6
[2]
  survivor count: 2 of 6

## NC(=O)N/N=C(\CCl)c1ccccc1
dose: 25.0 mg/kg/injection, schedule: Q04DX003 (ip), vehicle: saline
  survivor count: 3 of 6
dose: 50.0 mg/kg/injection, schedule: Q04DX003 (ip), vehicle: saline
  survivor count: 0 of 6
[3]
  survivor count: 1 of 6
[4]
  survivor count: 0 of 6
[5]
  survivor count: 0 of 6

## NC(=O)C(N)Cc1ccc(OCc2ccccc2)c(OCc2ccccc2)c1 (stereo unspecified)
[2]
  survivor count: 3 of 6

## CCCCCCCCCCCC1=C(O)C(=O)C(CC2=C(O)C(=O)C(CCCCCCCCCCC)=C(O)C2=O)=C(O)C1=O
dose: 100.0 mg/kg/injection, schedule: Q01DX001 (ip), vehicle: carboxymethylcellulose (CMC)
  survivor count: 4 of 4

## CCc1cccc(OS(=O)(=O)c2ccc([N+](=O)[O-])cc2)c1
[6]
  survivor count: 0 of 6

## OC(CI)C(O)C(O)C(O)CI (stereo unspecified)
[7]
  T/C: 128 % of control

## c1ccc(CN2CCn3nccc32)cc1
[7]
  survivor count: 3 of 6

## CSC(N)=Nc1ccccc1
dose: 350.0 mg/kg/injection, schedule: Q01DX009 (ip), vehicle: saline
  survivor count: 0 of 6

## CCCC(O)Cc1c[nH]c(=O)[nH]c1=O (stereo unspecified)
dose: 200.0 mg/kg/injection, schedule: Q01DX009 (ip), vehicle: saline with Tween-80
  survivor count: 3 of 6
[1]
  survivor count: 2 of 6

## COc1ccc(CCNC(=O)Cc2cc(OCc3ccccc3)c(OC)cc2[N+](=O)[O-])cc1OC
dose: 100.0 mg/kg/injection, schedule: Q01DX001 (ip), vehicle: water
  survivor count: 6 of 6

## C=CCOCC(O)CNCCCOC (stereo unspecified)
dose: 400.0 mg/kg/injection, schedule: Q01DX009 (ip), vehicle: saline
  survivor count: 0 of 6
[5]
  survivor count: 0 of 6

## CCCCC[C@@H](CN(C)C)[C@H](O)/C=C/c1ccc(Cl)cc1
dose: 100.0 mg/kg/injection, schedule: Q01DX009 (ip), vehicle: saline
  survivor count: 4 of 6
[3]
  survivor count: 3 of 6 and 5 of 6
dose: 200.0 mg/kg/injection, schedule: Q01DX009 (ip), vehicle: saline
  survivor count: 0 of 6
[4]
  survivor count: 2 of 6
[5]
  survivor count: 0 of 6 and 1 of 6

## C=C1CC[N+]2(CC(C)C)CCCC12 (stereo unspecified)
[3]
  survivor count: 4 of 6
[4]
  survivor count: 0 of 6
[5]
  survivor count: 0 of 6

## COc1ccc2c(Nc3ccc(NS(C)(=O)=O)cc3)c3ccccc3nc2c1
dose: 6.25 mg/kg/injection, schedule: Q01DX009 (sc), vehicle: saline
  T/C: 137 % of control
dose: 12.5 mg/kg/injection, schedule: Q01DX009 (sc), vehicle: saline
  T/C: 145 % of control
